# Results from PubChem BioAssay AID743255 (National Center for Advancing Translational Sciences (NCATS), 2014).
# Sequences of proteins named here, by UniProt entry; tags and fusion partners are left off. A change or cut given only in a name is not applied to a line headed by its entry.
# UniProt O94782: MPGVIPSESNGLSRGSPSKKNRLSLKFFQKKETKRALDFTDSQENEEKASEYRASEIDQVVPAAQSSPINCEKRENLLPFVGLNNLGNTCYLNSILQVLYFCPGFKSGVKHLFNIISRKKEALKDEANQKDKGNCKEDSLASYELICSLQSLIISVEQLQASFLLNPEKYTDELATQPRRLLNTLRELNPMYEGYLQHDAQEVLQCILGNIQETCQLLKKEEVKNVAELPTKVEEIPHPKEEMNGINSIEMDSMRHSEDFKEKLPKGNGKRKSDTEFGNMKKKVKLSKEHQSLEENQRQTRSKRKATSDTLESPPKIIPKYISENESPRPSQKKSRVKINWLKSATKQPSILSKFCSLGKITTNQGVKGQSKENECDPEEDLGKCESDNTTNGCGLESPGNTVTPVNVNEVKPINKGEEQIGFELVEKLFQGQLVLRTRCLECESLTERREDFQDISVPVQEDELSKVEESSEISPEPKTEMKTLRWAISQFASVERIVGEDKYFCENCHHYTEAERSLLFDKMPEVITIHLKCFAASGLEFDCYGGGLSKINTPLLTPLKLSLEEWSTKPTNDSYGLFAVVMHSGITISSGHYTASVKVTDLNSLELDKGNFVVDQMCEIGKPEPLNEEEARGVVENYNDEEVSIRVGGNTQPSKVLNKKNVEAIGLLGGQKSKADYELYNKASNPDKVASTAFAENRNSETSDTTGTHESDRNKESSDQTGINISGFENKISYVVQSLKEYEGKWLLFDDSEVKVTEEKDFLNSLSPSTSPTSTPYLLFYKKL
# About 910 (0.23%) of roughly 390,000 compounds were called active. This list was built around the results that the source calls inconclusive (neither active nor inactive); the mix of calls is not that of the screen. The call rests on the fitted dose curve; in most records, active means well fitted inhibition curve with a large enough effect; inconclusive means small, poorly fitted or top-dose-only effect; inactive means no such curve, though single readings can be large or run the other way. A potency beside an inconclusive call is a rough fit, not a confirmed value.
# Target: Ubiquitin carboxyl-terminal hydrolase 1 (Homo sapiens) (UniProt O94782)
# Assay: Inhibitors of USP1/UAF1: Primary Screen; further: nearly all actives have a fitted effect of over 60% in size
# Conditions: recombinant USP1/UAF1, Ub-Rhodamine cleavage fluorescence; activity change, negative = inhibition: at 57.1 µM (top of the series)
# How it was run: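 In this screen, compounds sit with the deubiquitinase complex (1nM) for 15 min at room temperature before Ub-Rho is added at 150nM final. Fluorescence rise is then followed for 6 reads every 60 seconds.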
# On the % scale 0 is the no-effect control and ±100 the full control effect; potency means the concentration at half of the fitted maximal effect.
Compound,Potency,"activity change, negative = inhibition"
Cc1cc(Cl)ccc1NC(=O)Cn1nc(C)c2c(C)n(-c3ccccc3)nc2c1=O,"inconclusive: 31.6 µM [inhibitor, partial curve, poor fit]",
CCCC(=O)Nc1ccc(-c2csc(N/N=C\c3ccncc3)n2)cc1,,inactive: -16.7%
CC1CCN(C(=O)Cn2c(=O)n(CCCCCC(=O)NCc3ccccc3Cl)c(=O)c3sccc32)CC1,,inactive: -23.9%
CC(=O)Nc1cc(-c2nc3cc(Cl)ccc3o2)ccc1C,"inconclusive: 15.8 µM [inhibitor, partial curve, poor fit]",
COCCn1c(SCC(=O)Nc2ccc3[nH]c(=O)[nH]c3c2)nc2ccccc21,"inconclusive: 12.6 µM [inhibitor, partial curve]",
CC/C(=N\Nc1ccc([N+](=O)[O-])cc1)c1ccccc1,"inconclusive: 39.8 µM [inhibitor, partial curve, poor fit]",
CCOC(=O)C1=C(C)OC(=CC=Cc2ccccc2)C1=O,,inactive: -22.6%
O=C(Nc1ccccc1)Oc1ccc[nH]c1=O,"inconclusive: 39.8 µM [inhibitor, single point]",
CCC(C(=O)Nc1ccc(C)cc1)c1ccccc1 (stereo unspecified),,inactive: 1.26%
CCN(CC)S(=O)(=O)c1ccc2c(c1)N(CC(=O)N1CCN(c3cccc(Cl)c3)CC1)C(=O)CO2,"inconclusive: 141 µM [inhibitor, partial curve, poor fit]",
CCC1CN(C(=O)N2CCC(C(=O)NCCc3cc(OC)ccc3OC)CC2)c2ccccc2O1 (stereo unspecified),,inactive: -25.5%
CN(CC(=O)Nc1c(Cl)cccc1Cl)CC(=O)N(C)C1(C#N)CCCCC1,"inconclusive: 39.8 µM [inhibitor, partial curve, poor fit]",
CNC(=O)C1CN(C(=O)c2nn(Cc3ccccc3)c(=O)c3ccccc23)c2ccccc2O1 (stereo unspecified),,inactive: -7.44%
CCOc1ccc(-c2cc(CCCC(=O)NCCc3ccc(Cl)cc3)no2)cc1,"inconclusive: 5.62 µM [inhibitor, partial curve]",
CCOc1ccccc1N(C(=O)c1snc(C(N)=O)c1N)C(C(=O)NCC1CCCO1)c1ccc2ncccc2c1 (stereo unspecified),"inconclusive: 39.8 µM [inhibitor, partial curve, poor fit]",
CN1CCN(C(c2ccc(F)cc2)c2ccc3cccnc3c2O)CC1 (stereo unspecified),,inactive: -21%
CC1=C(C(=O)Nc2ccccc2)C(c2ccccc2C)n2nc(SCC(=O)c3ccc(C)cc3)nc2N1 (stereo unspecified),"inconclusive: 7.94 µM [inhibitor, partial curve]",
Cc1oc(-c2cccc(Cl)c2)nc1CN1CCC(C(=O)N2CCN(c3ccccn3)CC2)CC1,,inactive: -18.5%
Cc1ccc(NC(=O)C2CCC(C(C)(C)C)CC2)cc1S(=O)(=O)N1CCOCC1 (stereo unspecified),"inconclusive: 35.5 µM [inhibitor, partial curve, poor fit]",
COc1ccccc1OCCCOc1ccc(/C=C2\SC(=O)NC2=O)cc1OC,,inactive: -11.2%
CC(=O)Nc1ccc(S(=O)(=O)Nc2nnc(C)s2)cc1,"inconclusive: 0.355 µM [inhibitor, full curve, poor fit]",
CC(/C=C/c1ccco1)=N\NC(=O)CNc1ccc2ccccc2c1,,inactive: -15.7%

Compound,Potency,"activity change, negative = inhibition"
Cc1ccccc1NC(=O)CSc1nc2ccccc2c(=O)n1CC1CCCO1 (stereo unspecified),"inconclusive: 7.94 µM [inhibitor, partial curve, poor fit]",
O=C(CN1C(=O)c2ccccc2C1=O)NC1CCCCCC1,,inactive: -19.9%
Clc1ccc(C2[C@H]3CN(Cc4cccnc4)[C@H](c4ccccc4)C34CC2(c2ccccc2)C4)cn1 (stereo partly specified),"inconclusive: 44.7 µM [inhibitor, partial curve, poor fit]",
CC1=CC2=NC(=O)/C(=C\c3cc(C)n(-c4ccccc4F)c3C)C(=N)N2O1,"inconclusive: 28.2 µM [inhibitor, partial curve]",
CCSc1nnc(NC(=O)C(C(F)(F)F)C(F)(F)F)s1,,inactive: -13.7%
Oc1oc(-c2ccccc2)nc1C=Nc1cccc2ccccc12,"inconclusive: 35.5 µM [inhibitor, partial curve, poor fit]",
CCN(CC)S(=O)(=O)c1ccc2c(c1)N(CC(=O)NCCCN1CCN(c3ccc(OC)cc3)CC1)C(=O)CO2,"inconclusive: 708 µM [inhibitor, partial curve, poor fit]",
CN1CCC(OC2c3ccccc3CCc3ccccc32)CC1,"inconclusive: 44.7 µM [inhibitor, partial curve]",
Cc1ccc(C(=O)N[C@H](C(=O)Nc2ccc(F)cc2)C(C)C)cc1,,inactive: -13.2%
CCOC(=O)c1cnc2ccc(OC)cc2c1Nc1ccc(OCc2ccccc2Cl)cc1,"inconclusive: 100 µM [inhibitor, partial curve]",
Cc1c(C(=O)N2CCOCC2)[nH]c2c1C(=O)CC(c1ccccc1Cl)C2 (stereo unspecified),"inconclusive: 31.6 µM [inhibitor, single point]",
CC(=O)N(c1ccccc1)C(C(=O)c1ccccc1)c1ccccc1 (stereo unspecified),"inconclusive: 35.5 µM [inhibitor, single point]",
COc1cccc(N2CCN(C(=O)C3CCCN(S(=O)(=O)c4cnc[nH]4)C3)CC2)c1 (stereo unspecified),"inconclusive: 12.6 µM [inhibitor, partial curve]",
CC(C)N(C(=O)COC(=O)c1ccc(Cl)s1)c1ccccc1,,inactive: -15.1%
Cc1ccc(S(=O)(=O)N2CCC3(CC2)OCCN3S(=O)(=O)c2cccs2)cc1,"inconclusive: 0.355 µM [inhibitor, full curve, poor fit]",
O=C(Nc1cccc(Cl)c1)Nc1cccc(Cl)c1,,inactive: -14%
CCOC(=O)N1CCN(Cc2nc3cc(NC(=O)c4ccccc4Cl)ccc3n2C(C)C)CC1,"inconclusive: 0.631 µM [inhibitor, full curve, poor fit]",
CCCN(CCC)C(=O)COc1cc(=O)n(CC)c2ccccc12,"inconclusive: 31.6 µM [inhibitor, partial curve]",
COc1ccc(C(=O)CSc2cc(C)nc3nc(C)nn23)cc1OC,"inconclusive: 2.82 µM [inhibitor, partial curve]",
Cc1cc([N+](=O)[O-])ccc1NC(=O)c1csc(C)c1C,,inactive: -18.6%
COC(=O)/C=C1\SC(=NC(=O)c2ccc(OC)cc2)NC1=O,,inactive: -27.4%
COc1cccc(CC2(CO)CCCN(Cc3ccc(-c4ccco4)cc3)C2)c1 (stereo unspecified),,inactive: -11.1%

# Two entries drawn at random from the list so far:
Compound,Potency,"activity change, negative = inhibition"
COc1cccc(N2CCN(C(=O)C3CCCN(S(=O)(=O)c4cnc[nH]4)C3)CC2)c1 (stereo unspecified),"inconclusive: 12.6 µM [inhibitor, partial curve]",
CCCN(CCC)C(=O)COc1cc(=O)n(CC)c2ccccc12,"inconclusive: 31.6 µM [inhibitor, partial curve]",

# Next part:

Compound,Potency,"activity change, negative = inhibition"
Cc1cc(OCC(=O)N2CCC(c3nc4ccccc4s3)CC2)ccc1Cl,"inconclusive: 0.398 µM [inhibitor, full curve, poor fit]",
O=C(CSc1ncc(-c2ccccc2)[nH]1)Nc1cccc(Br)c1,,inactive: -19.8%
Cc1cc(NC(=O)CCC(=O)N(c2ccccc2)C(C(=O)NC2CCCC2)c2ccc(F)cc2)no1 (stereo unspecified),"inconclusive: 5.62 µM [inhibitor, partial curve, poor fit]",
CC(C)(C)Cc1c(-c2ccc(Br)cc2)nc2ccc(Br)cn12,"inconclusive: 39.8 µM [inhibitor, partial curve]",
Cc1nn(CCCC(=O)Nc2cc(C(F)(F)F)ccc2Cl)c(=O)c2c1sc1ccccc12,,inactive: -13.2%
O=C1C(Cl)=C(NCCCO)C(=O)c2ccccc21,"inconclusive: 31.6 µM [inhibitor, single point]",
CCc1ccc(CNC(=O)CSc2cc(=O)n(CC)c3ccccc23)cc1,,inactive: -24.5%
COc1ccc(N2CCN(C(=O)c3ccc4c(=O)n(CCc5ccc(OC)c(OC)c5)c(=O)[nH]c4c3)CC2)cc1,"inconclusive: 7.08 µM [inhibitor, single point]",
COc1cc(/C=C/C(=O)OCC(=O)Nc2ccc(S(N)(=O)=O)cc2)ccc1O,"inconclusive: 11.2 µM [inhibitor, full curve]",
CCN(C(=O)CSc1nnc(-c2cc3occc3n2C)n1-c1ccccc1C)c1cccc(C)c1,"inconclusive: 0.316 µM [inhibitor, full curve, poor fit]",
C[C@H]1CN([C@@H](C)CO)C(=O)Cc2cc(NC(=O)CCC(F)(F)F)ccc2O[C@H]1CN(C)S(=O)(=O)c1ccc(F)cc1,"inconclusive: 0.112 µM [inhibitor, full curve, poor fit]",
Cc1cc(C(C)(C)C)oc1C(=O)N1CCN(C(=O)c2oc(C(C)(C)C)cc2C)CC1,"inconclusive: 39.8 µM [inhibitor, partial curve, poor fit]",
COc1ccc(CNC(=O)c2cc3c(-c4ccccc4F)nn(C)c3s2)cc1,"inconclusive: 5.62 µM [inhibitor, partial curve]",
O=C(Cn1ncc(Cl)c(Cl)c1=O)c1ccc2c(c1)OCCO2,,inactive: -18%
COC(=O)n1c(=O)oc2ccccc21,,inactive: -16.5%
CCc1ccc(NCc2cc3cc4c(cc3n(CC(=O)Nc3ccccc3Cl)c2=O)OCO4)cc1,"inconclusive: 20 µM [inhibitor, partial curve]",
Clc1ccc2nc(Nc3ccccc3Cl)nc(-c3ccccc3)c2c1,"inconclusive: 7.94 µM [inhibitor, partial curve]",
CCN1CCN(c2ccc(NC(=O)Cc3ccccc3)cc2)CC1,,inactive: -15.7%
Cc1c(N=NC2=C(O)CC(C)(C)CC2=O)cc2c(c1[N+](=O)[O-])C(C)(C)CC2(C)C,"inconclusive: 44.7 µM [inhibitor, partial curve, poor fit]",
COc1ccccc1NC(=S)N1CCC(c2nc3cc(C)c(C)cc3[nH]2)CC1,"inconclusive: 89.1 µM [inhibitor, partial curve, poor fit]",
COc1ccc2c(c1)c1c(c(=O)n(-c3ccc(F)c(Cl)c3)c(=O)n1CC(N)=O)n2C,"inconclusive: 251 µM [inhibitor, partial curve, poor fit]",
CCC1CN(C(=O)Nc2cccc(OC)c2)c2ccccc2O1 (stereo unspecified),,inactive: -25.7%
